Patent publication US20110112012A1 (UNIVERSITY OF GEORGIA STUDIES RESEARCH FOUNDATION, published 2011)
No constants are given. Whether binding was seen depends on the method and setting. Some binding calls cover weakened binding; strength is not graded here.

Tests used:
[1] = target: AgCad1, Anopheles gambiae cadherin, full length, expressed in Drosophila S2 cells from pIZT-AgCad1 with C-terminal V5 epitope tag (Anopheles gambiae); test: bead extraction (Cry4Ba on anti-Cry4Ba/Protein A beads) from CHAPS-solubilized S2 cells, anti-V5 blot
[2] = target: TM-Cyto peptide of AgCad1 (amino acids 1570D to 1735F), expressed in E. coli (Anopheles gambiae); test: dot blot with ^125I-Cry4Ba; 1000-fold unlabeled Cry4Ba had no effect on the binding
[3] = target: AgCad1, Anopheles gambiae cadherin, full length, expressed in Drosophila S2 cells from pIZT-AgCad1 with C-terminal V5 epitope tag (Anopheles gambiae); test: dot blot of partially purified AgCad1 from S2 cells, non-denaturing, autoradiography
[4] = target: T1, CR11-MPED peptide of AgCad1 (amino acids 1358G to 1569A), expressed in E. coli (Anopheles gambiae); test: dot blot with ^125I-Cry4Ba; 1000-fold unlabeled Cry4Ba partially reduced the binding
T1 sequence: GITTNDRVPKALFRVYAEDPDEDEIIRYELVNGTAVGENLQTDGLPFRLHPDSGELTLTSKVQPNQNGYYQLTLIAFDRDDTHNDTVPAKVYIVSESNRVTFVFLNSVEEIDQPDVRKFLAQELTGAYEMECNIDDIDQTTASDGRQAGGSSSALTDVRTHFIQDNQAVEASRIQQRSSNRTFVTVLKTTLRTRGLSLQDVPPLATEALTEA

[5] = target: AgCad1, Anopheles gambiae cadherin, full length, expressed in Drosophila S2 cells from pIZT-AgCad1 with C-terminal V5 epitope tag (Anopheles gambiae); test: dot blot with ^125I-Cry4Ba
[6] = target: T1, CR11-MPED peptide of AgCad1 (amino acids 1358G to 1569A), expressed in E. coli (Anopheles gambiae); test: dot blot with ^125I-Cry4Ba
[7] = target: AgCad1 of Anopheles gambiae larval brush border membrane vesicles (200 kDa protein) (Anopheles gambiae); test: ligand blot of BBMV proteins, detected with anti-Cry4Ba serum

Measured: binding

B1: Cry4Ba toxin (Cry4BRA mutant, R203 replaced by A) of Bacillus thuringiensis israelensis (protein)
chain: VAGAILKFVNPPAGTVLTVLSAVLPILWPTNTPTPERVWNDFMTNTGNLIDQTVTAYVRTDANAKMTVVKDYLDQYTTKFNTWKREPNNQSYRTAVITQFNLTSAKLRETAVYFSNLVGYELLLLPIYAQVANFNLLLIRDGLINAQEWSLAASAGDQLYNTMVQYTKEYIAHSITWYNKGLDVLRNKSNGQWITFNDYKREMTIQVLDILALFASYDPRRYPADKIDNTKLSKTEFTREIYTALVESPSSKSIAALEAALTRDVHLFTWLKRVDFWTNTIYQDLRFLSANKIGFSYTNSSAMQESGIYGSSGFGSNLTHQIQLNSNVYKTSITDTSSPSNRVTKMDFYKIDGTLASYNSNITPTPEGLRTTFFGFSTNENTPNQPTVNDYTHILSYIKTDVIDYNSNRVSFAWTHKIVDPNNQIYTDAITQVPAVKSNFLNATAKVIKGPGHTGGDLVALTSNGTLSGRMEIQCKTSIFNDPTRSYGLRIRYAANSPIVLNVSYVLQGVSRGTTISTESTFSRPNNIIPTDLKYEEFRYKDPFDAIVPMRLSSNQLITIAIQPLNMTSNNQVIIDRIEIIPITQSVLDET
binds: all assays above
